Assay results as given in article PMC10369405 (JACS Au, 2023).
Results are given in words; binding and its absence hold for the method and conditions named. Some entries that bind do so weakly or less than the wild type.

Chains of the proteins cited; added tags and fusions are not shown. Lines headed by an entry give the natural chain unless they say otherwise; changes in a name come on top. A line that says so, or that is headed by a name, gives the form on record, which may keep a tag or linker. Residues count along the entry.
human Caspase-1 p10 fragment (P29466, residues 317-404): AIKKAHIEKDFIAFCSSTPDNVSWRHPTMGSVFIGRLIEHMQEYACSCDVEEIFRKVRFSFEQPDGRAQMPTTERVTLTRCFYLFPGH
human Caspase-1 p20 fragment (C285A) (P29466, form named): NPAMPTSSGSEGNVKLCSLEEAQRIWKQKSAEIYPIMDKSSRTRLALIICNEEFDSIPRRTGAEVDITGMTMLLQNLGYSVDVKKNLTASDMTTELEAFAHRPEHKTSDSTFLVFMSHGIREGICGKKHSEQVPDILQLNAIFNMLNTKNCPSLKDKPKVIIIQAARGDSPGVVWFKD

Biological target: human Caspase-1 p20 fragment (C285A) (human) (UniProt P29466)
Experiment: co-purification after refolding (His affinity, cation exchange, gel filtration); p20 and p10 co-expressed, inclusion bodies solubilised in GnHCl, refolded by rapid dilution, purified on HisTrap HP, SP HP HiTrap and Superdex 75

binding: binds
Substance: human Caspase-1 p10 fragment (from UniProt P29466 317-404) (domain or fragment)
